These are yes or no findings as the source states them, for the method shown. Binding seen in cells or lysates may run through a third protein. Binding calls can cover weak binding; strength is not graded here. Sequences can lack the tags named with a protein.
How the values were obtained:
Assay in all cases: co-IP
MOG-7a-V5 (C. elegans) = molecular target: MOG-7a-V5 (C. elegans)
MOG-7b-V5 (C. elegans) = molecular target: MOG-7b-V5 (C. elegans)
[1] = molecular target: MOG-7a(ΔGCFC) (C. elegans)

| Binder | binding (MOG-7a-V5 (C. elegans)) | binding (MOG-7b-V5 (C. elegans)) | binding [1] |
| --- | --- | --- | --- |
| FLAG-PRP-19 (protein, UniProt Q10051 1-492) MSFVCGISGELTEDPVVSQVSGHIFDRRLIVKFIAENGTDPISHGELSEDQLVSLKSGGTGSAPRNVSGTSIPSLLKMLQDEWDTVMLNSFSLRQQLQIARQELSHSLYQHDAACRVISRLSKELTAAREALSTLKPHTSAKVDDDVSIDESEDQQGLSEAILAKLEEKSKSLTAERKQRGKNLPEGLAKTEELAELKQTASHTGIHSTGTPGITALDIKGNLSLTGGIDKTVVLYDYEKEQVMQTFKGHNKKINAVVLHPDNITAISASADSHIRVWSATDSSSKAIIDVHQAPVTDISLNASGDYILSASDDSYWAFSDIRSGKSLCKVSVEPGSQIAVHSIEFHPDGLIFGTGAADAVVKIWDLKNQTVAAAFPGHTAAVRSIAFSENGYYLATGSEDGEVKLWDLRKLKNLKTFANEEKQPINSLSFDMTGTFLGIGGQKVQVLHVKSWSEVVSLSDHSGPVTGVRFGENARSLVTCSLDKSLRVFSF | binds | binds | – |
| FLAG-STIP-1 (protein, UniProt Q17784 1-830) MEDDDGRESFEINDMDLEYAMNPGGRRRFQNKDQATYGVFAPDSDDDDDEQGTSRGPYKKRSKISAPMSFVSGGIQQGNKIDKDDPASLNLNLGGEKKPKEDDEGSIQIDFDKRTKKAPKQNGAQVFAGMRSSANHGAADINQFGSWMRGDGNSNKIMKMMQAMGYKPGEGLGAQGQGIVEPVQAQLRKGRGAVGAYGKESTATGPKFGESAADAQKRMAQEGTSSRPTNDDQEKSGLKIKGSWKKSQTVKTKYRTIEDVMEEGMSASRPASHQQSQQYSNIKVIDMTGKQQKIYSGYDSFSMKTRSEYDTVDDEERTVFDVPELIHNLNLLVDLTEEGIRRSNQQLISLKDQTTALEYDLQQVQKSLGTEEQEAQHIKDVYELIDGFSSNRSPSMEECQELFRRLRSEFPHEYELYSLETVAIPTVLPLIQKYFVAWKPLEDKNYGCELISTWRDILDDSKNGRKMTFGHNKTKGDEIRAYDRIIWEGILPSIRRACLQWDPSTQMHEMIELVEQWIPLLSAWITENILEQLVVPKIAERVNQWDPMTDEIPIHEWLVPWLVLLGDRIQTVMPPIRQKLSKALKLWDPMDRSALETLRPWQNVWSAATFSAFIAQNIVPKLGVALDTMELNPTMNPEYPEWTACMEWLEFTHPDAIANIVTKYFFPRFYNCLCLWLDSPGVDYNEVKRWYGSWKARIPQVLVNYPTVNENLRRSMIAIGRSLQGEKVGGLQATPIAPMAPPPPMAPHFTQAAPVQKLSLKEIIEYTAGKNGFTYHPQKDRYKDGRQVFWFGALSIYLDSEMVYVMDPIEFVWRPSGLNELIQMAQGAQG | binds | binds | binds |

— article doi:10.1101/2021.06.04.447173
